Source: the supplement of paper PMC4604168 (melanoma cell lines)
The list shows a part of the results. Single values are uncertain, as repeats are few or missing.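 Imaging used 1,536-well plates; nuclei positive for cleaved PARP by antibody were divided by total DNA-stained nuclei to yield the apoptosis fraction. Doses for screening kept most cells viable, and cell lines differ markedly in resting and induced cleaved-PARP levels.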

Assays:
Assay in all cases: cleaved PARP positive nuclei fraction relative to DMSO control; melanoma cells; higher = more apoptosis
Details in all cases: library dose: low library concentration; 72 h
[1] = system: 501Mel
[2] = system: A101D
[3] = system: A2058
[4] = system: A375
[5] = system: C32
[6] = system: CBRC008 (line from a melanoma biopsy)
[7] = system: CBRC014 (line from a melanoma biopsy)
[8] = system: CBRC016 (line from a melanoma biopsy)
[9] = system: CBRC017 (line from a melanoma biopsy)
[10] = system: CBRC034 (line from a melanoma biopsy)
[11] = system: COLO792
[12] = system: COLO800
[13] = system: COLO829
[14] = system: G361
[15] = system: IPC-298
[16] = system: IST-MEL1
[17] = system: LB2518-MEL
[18] = system: LOXIMVI
[19] = system: MEL-HO

| Structure (SMILES) | cleaved PARP positive nuclei fraction [1] [%] | cleaved PARP positive nuclei fraction [2] [%] | cleaved PARP positive nuclei fraction [3] [%] | cleaved PARP positive nuclei fraction [4] [%] | cleaved PARP positive nuclei fraction [5] [%] | cleaved PARP positive nuclei fraction [6] [%] | cleaved PARP positive nuclei fraction [7] [%] | cleaved PARP positive nuclei fraction [8] [%] | cleaved PARP positive nuclei fraction [9] [%] | cleaved PARP positive nuclei fraction [10] [%] | cleaved PARP positive nuclei fraction [11] [%] | cleaved PARP positive nuclei fraction [12] [%] | cleaved PARP positive nuclei fraction [13] [%] | cleaved PARP positive nuclei fraction [14] [%] | cleaved PARP positive nuclei fraction [15] [%] | cleaved PARP positive nuclei fraction [16] [%] | cleaved PARP positive nuclei fraction [17] [%] | cleaved PARP positive nuclei fraction [18] [%] | cleaved PARP positive nuclei fraction [19] [%] |
| --- | --- | --- | --- | --- | --- | --- | --- | --- | --- | --- | --- | --- | --- | --- | --- | --- | --- | --- | --- |
| CC(=O)O[C@@]12CO[C@@H]1C[C@H](O)[C@@]1(C)C(=O)[C@H](O)C3=C(C)[C@@H](OC(=O)[C@H](O)[C@@H](NC(=O)OC(C)(C)C)c4ccccc4)C[C@@](O)([C@@H](OC(=O)c4ccccc4)[C@H]21)C3(C)C [Docetaxel] + CN1CCN(c2ccc3nc(-c4c(N)c5c(F)cccc5[nH]c4=O)[nH]c3c2)CC1 [Dovitinib] (first compound 0.0001 µM, partner dose 0.1 µM) | 161 | 288 | 1220 | 3380 | 88.4 | 241 | 180 | 345 | 239 | 116 | 473 | 120 | 352 | 802 | 478 | 204 | 278 | 31 | 254 |
| CC(=O)O[C@@]12CO[C@@H]1C[C@H](O)[C@@]1(C)C(=O)[C@H](O)C3=C(C)[C@@H](OC(=O)[C@H](O)[C@@H](NC(=O)OC(C)(C)C)c4ccccc4)C[C@@](O)([C@@H](OC(=O)c4ccccc4)[C@H]21)C3(C)C [Docetaxel] + C=CCNC1=C2C[C@@H](C)C[C@H](OC)[C@H](O)[C@@H](C)/C=C(\C)[C@H](OC(N)=O)[C@@H](OC)/C=C\C=C(/C)C(=O)NC(=CC1=O)C2=O [Tanespimycin] (first compound 0.0001 µM, partner dose 0.002 µM) | 351 | 89.6 | 3160 | 3680 | 85.2 | 150 | 162 | 194 | 187 | 78.3 | 477 | 262 | 124 | 433 | 193 | 91 | 189 | 180 | 54.8 |
| CC1(C)CCC(c2ccc(Cl)cc2)=C(CN2CCN(c3ccc(C(=O)NS(=O)(=O)c4ccc(N[C@H](CCN5CCOCC5)CSc5ccccc5)c(S(=O)(=O)C(F)(F)F)c4)cc3)CC2)C1 + NC(=O)c1ccc(N(C(N)=O)c2c(F)cccc2F)nc1-c1ccc(F)cc1F [VX702] (first compound 0.4 µM, partner dose 0.4 µM) | 248 | 277 | 85.2 | 739 | 149 | 589 | 819 | 868 | 249 | 120 | 416 | 49.1 | 104 | 176 | 79.7 | 449 | 136 | 1630 | 79.9 |
| NC1(c2ccc(-c3nc4ccn5c(=O)[nH]nc5c4cc3-c3ccccc3)cc2)CCC1 + O=C(O)c1ccc2c(c1)nc(Nc1cccc(Cl)c1)c1ccncc12 [CX4945] (first compound 0.4 µM, partner dose 0.4 µM) | 67.7 | 44.2 | 168 | 146 | 83.2 | 225 | 87.7 | 229 | 136 | 263 | 244 | 77.1 | 126 | 225 | 95.5 | 67 | 83.3 | 139 | 107 |
| Cn1sc(=O)n(Cc2ccccc2)c1=O + CN1CCN(c2ccc3nc(-c4c(N)c5c(F)cccc5[nH]c4=O)[nH]c3c2)CC1 [Dovitinib] (first compound 0.4 µM, partner dose 0.1 µM) | 150 | 120 | 76 | 227 | 143 | 52.5 | 69.7 | 75.2 | 90.3 | 71.1 | 75.6 | 86.3 | 104 | 89.4 | 109 | 153 | 24.7 | 36.9 | 65.8 |
| NC(=O)c1ccc(N(C(N)=O)c2c(F)cccc2F)nc1-c1ccc(F)cc1F + Cn1c(=O)n(-c2ccc(C(C)(C)C#N)cc2)c2c3cc(-c4cnc5ccccc5c4)ccc3ncc21 [NVP-BEZ235] (first compound 0.4 µM, partner dose 0.004 µM) | 95 | 46.1 | 146 | 104 | 156 | 19 | 95.8 | 179 | 250 | 90.3 | 90.2 | 75.2 | 111 | 133 | 53.9 | 136 | 102 | 53.2 | 313 |
| NC1(c2ccc(-c3nc4ccn5c(=O)[nH]nc5c4cc3-c3ccccc3)cc2)CCC1 + Nc1ncn([C@H]2C[C@H](O)[C@@H](CO)O2)c(=O)n1 [decitabine] (first compound 0.4 µM, partner dose 0.1 µM) | 104 | 55.6 | 97.3 | 267 | 97.4 | 48.8 | 102 | 68.6 | 115 | 92.2 | 102 | 90.5 | 189 | 34.5 | 273 | 162 | 60.9 | 247 | 105 |
| CC1(C)CCC(c2ccc(Cl)cc2)=C(CN2CCN(c3ccc(C(=O)NS(=O)(=O)c4ccc(N[C@H](CCN5CCOCC5)CSc5ccccc5)c(S(=O)(=O)C(F)(F)F)c4)cc3)CC2)C1 + CO[C@H]1C[C@@H]2CC[C@@H](C)[C@@](O)(O2)C(=O)C(=O)N2CCCC[C@H]2C(=O)O[C@H]([C@H](C)C[C@@H]2CC[C@@H](OCCO)[C@H](OC)C2)CC(=O)[C@H](C)/C=C(\C)[C@@H](O)[C@@H](OC)C(=O)[C@H](C)C[C@H](C)/C=C/C=C/C=C/1C [everolimus] (first compound 0.4 µM, partner dose 0.02 µM) | 776 | 243 | 130 | 1190 | 357 | 714 | 685 | 1680 | 395 | 47.6 | 464 | 208 | 181 | 467 | 164 | 236 | 363 | 962 | 181 |
